Experimental data: PubChem BioAssay AID1487 (National Center for Advancing Translational Sciences (NCATS), 2009)
“And” between values parts separate entries of the source, which are not always exact repeats. Equal entries are not always repeated. The list shows a part of the results. Further columns of the screen follow, without active or inactive calls. Most of these compounds were active or inconclusive in the main read-out, so they are no random draw. The note in brackets gives the kind of curve behind each potency; many fits are weak.

Test: qHTS Assay for Modulators of Lamin A Splicing
Settings: HeLa LMNA splicing GFP/RFP minigene ratio, 48 h
Summary of the method: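 S3 HeLa stable clones carrying a lamin A-EGFP splicing minigene plus DsRed2 were seeded at 600 cells/well in Opti-MEM with 2% FBS, pin-dosed and incubated 48 h at 37°C. Acumen cytometry (488 nm) gave the GFP/RFP total-intensity ratio.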

[1] = measured here: RFP viability control channel
[2] = measured here: GFP splicing reporter channel

SMILES	AC50 [1]	AC50 [2]
O=C(Cn1cc(SCc2ccc(Cl)cc2)c2ccccc21)N1CCOCC1	31.6 µM [rising, single point]	–
COc1ccccc1OCC(=O)Nc1cc(S(=O)(=O)N2CCCCC2)ccc1N1CCCCC1	17.8 µM [rising, partial curve]	15.8 µM [rising, single point]
CCOc1ccccc1NC(=O)CCN1CCN(S(=O)(=O)c2ccc(OC)cc2)CC1	6.31 µM [rising, full curve, poor fit]	–
Cc1nn(Cc2ccccc2Cl)c(C)c1NC(=O)c1ccn(C)n1	15.8 µM [rising, single point]	–
CCOC(=O)C[N+]1(C)CCN(C(C)=O)CC1	–	0.00355 µM [rising, full curve, poor fit]
Oc1[nH]c2ccccc2c1N=Nc1ccccc1F	2.24 µM [rising, partial curve, poor fit]	1.12 µM [rising, partial curve, poor fit]
O=C(NCc1cn(-c2ccccc2)nc1-c1ccc(F)cc1)c1cccc([N+](=O)[O-])c1	35.5 µM [rising, single point]	–
CC(=O)c1ccc(OCCCC(=O)Nc2cc(S(=O)(=O)N(C)C)ccc2C)cc1	12.6 µM [rising, partial curve, poor fit]	–
Cc1nn(Cc2ccccc2)c2sc(C(=O)N3CCN(Cc4ccc5c(c4)OCO5)CC3)cc12	17.8 µM [rising, single point]	8.91 µM [rising, partial curve]
COc1ccccc1-c1nnc(Sc2nc([N+](=O)[O-])nn2C)o1	25.1 µM [falling, single point]	15.8 µM [falling, single point]
O=C(Cn1cc(C(=O)C(F)(F)F)c2cc(Br)ccc21)N1CCOCC1	12.6 µM [rising, single point]	–
COc1ccccc1Nc1nc(Cl)c(C=O)s1	7.94 µM [rising, partial curve]	–
CSc1nc(N(C)NC(=O)c2ccc(Cl)cc2)c2ccccc2n1	3.16 µM [rising, full curve]	8.91 µM [rising, partial curve, poor fit]
COc1c2c(cc3occ(-c4ccc5c(c4)OCO5)c(=O)c13)OC(C)(C)C=C2	35.5 µM [falling, single point]	17.8 µM [falling, single point]
NCC(O)CN(c1ccccc1)c1ccccc1 (stereo not drawn)	–	2.82 µM [falling, partial curve]
CCCNC(=O)c1ccc(Cn2c(SCC(N)=O)nc3ccccc3c2=O)cc1	–	0.251 µM [falling, full curve]
O=C(c1cccc(Cl)c1)c1nn(-c2ccccc2)c(=O)cc1C(F)(F)F	0.0355 µM [falling, partial curve]	11.2 µM [falling, single point]
Cc1ccc2nc(-c3ccc(SCC(=O)Nc4cc(C)on4)nc3)[nH]c2c1	11.2 µM [rising, partial curve, poor fit]	–
COc1cc(/C=N/NC(=S)NC(C)C)ccc1OCC(=O)Nc1c(C)cc(C)cc1C	3.55 µM [rising, full curve]	–
COc1ccccc1N=c1oc2cc(O)ccc2cc1C(N)=O	1.12 µM [falling, partial curve]	–
O=C(CSc1nc(=O)n(CCN2CCOCC2)c2c1CCC2)Nc1ccc(F)cc1F	1.12 µM [falling, single point]	–
COCCCn1c(SCC(=O)Nc2ccc(OC)cc2)nc2c(sc3ccccc32)c1=O	0.178 µM [falling, full curve, poor fit]	–
CC(C)(C)c1cc(/C=C(\C#N)C(N)=S)cc(C(C)(C)C)c1O	2.82 µM [falling, full curve]	5.62 µM [falling, partial curve]
COc1ccc(NC(=O)c2cc(C)on2)cc1	–	0.631 µM [rising, single point]
CCCCC1=NC2(CCCC2)C(=O)N1Cc1ccc(-c2ccccc2-c2nn[nH]n2)cc1	0.398 µM [rising, full curve, poor fit]	0.251 µM [falling, partial curve, poor fit]
CC(C)CCNC(=O)c1cc(-c2cccnc2)nc2ccc(S(=O)(=O)N3CCC(C)CC3)cc12	–	0.0398 µM [rising, full curve, poor fit]
CCC(Sc1nc2ccsc2c(=O)n1-c1ccc(Cl)c(C)c1)C(=O)NCc1ccco1 (stereo not drawn)	35.5 µM [rising, single point]	35.5 µM [rising, single point]

SMILES	AC50 [1]	AC50 [2]
O=C(CC1(O)C(=O)Nc2ccccc21)c1ccccc1O (stereo not drawn)	6.31 µM [falling, partial curve]	–
O=C1[C@@H]2Cc3c([nH]c4ccccc34)[C@@H](c3ccccc3)N2C(=O)[C@@H]2Cc3c([nH]c4ccccc34)[C@@H](c3ccccc3)N12	0.501 µM [rising, full curve]	1.41 µM [rising, partial curve]
CCOc1ccc(-c2cc(C(=O)NCCc3ccc(C)cc3)c3ccccc3n2)cc1	10 µM [falling, partial curve, poor fit]	7.08 µM [falling, partial curve, poor fit]
COc1ccc(-c2coc3cc(O)cc(O)c3c2=O)cc1	28.2 µM [rising, single point]	–
COc1ccccc1OCCOCCOc1c(C)cc(C)cc1Br	35.5 µM [rising, single point]	–
CC(=O)OCCN(C)c1cc(SC(C)C)c2nonc2c1[N+](=O)[O-]	0.0355 µM [rising, full curve, poor fit]	–
Cn1cc(-c2nc3cnc(OCc4ccccc4)nc3n(CCC#N)c2=O)c2ccccc21	–	12.6 µM [falling, partial curve]
O=c1c2c(nc3n1CCCCC3)-c1ccccc1CC21CCCC1	17.8 µM [rising, single point]	–
CCN(CC)C(=O)c1ccc2c3c(cccc13)C(=O)N(CCc1ccc(OC)c(OC)c1)C2=O	20 µM [rising, partial curve, poor fit]	–
COC(=O)c1ccccc1NC(=O)Cn1cnc2cc(C)c(C)cc21	22.4 µM [rising, partial curve]	–
O=C(NC1CCCCC1)c1ccc(CSc2nc3cccnc3n2Cc2ccccc2)cc1	–	0.794 µM [falling, full curve, poor fit]
CC(=O)Nc1cccc(NC(=O)CSc2nccn2Cc2ccccc2)c1	0.501 µM [falling, full curve]	–
Cc1cccc2nc(CSc3nc4ccc([N+](=O)[O-])cc4[nH]3)c(Br)n12	17.8 µM [rising, partial curve, poor fit]	14.1 µM [rising, single point]
CCCn1c(=O)c(Cc2ccccc2)c(O)c2ccccc21	0.501 µM [falling, partial curve]	0.501 µM [falling, partial curve]
CCOC(=O)c1c(N)n(-c2ccc(OCC)cc2)c2nc3ccccc3nc12	0.562 µM [falling, partial curve]	–
Cc1ccc(C2CC(=O)NC(SCC(N)=O)=C2C#N)s1 (stereo not drawn)	–	35.5 µM [rising, partial curve]
O=S(=O)(NCCNC/C=C/c1ccc(Br)cc1)c1cccc2cnccc12	12.6 µM [falling, partial curve]	11.2 µM [falling, partial curve]
O=C(CCCCCn1c(=O)[nH]c2ccccc2c1=O)N1CCN(c2cccc(C(F)(F)F)c2)CC1	0.0126 µM [falling, full curve, poor fit]	–
CN(NC(=O)c1ccccc1)c1nc2ccccc2nc1C(F)(F)F	1.12 µM [rising, partial curve, poor fit]	–
OCC1OC(n2cnc3c(=S)nc[nH]c32)C(O)C1O (stereo not drawn)	891 nM [rising, full curve] and 25.1 nM [rising, full curve]	1.41 µM [rising, full curve] and 100 nM [rising, full curve, poor fit]
Cc1ccc(NCCC(=O)c2cccc([N+](=O)[O-])c2)c(C)c1	3.98 µM [rising, full curve, poor fit]	–
C[C@H](NC(=O)/C(C#N)=C/c1ccc(O)c(O)c1)c1ccccc1	–	12.6 µM [falling, partial curve, poor fit]
FC(F)(F)c1cc(-c2ccco2)nc(NCc2ccc(Cl)cc2)n1	–	11.2 µM [rising, partial curve]
O=c1[nH][nH]c(-c2ccccc2O)c1C(C[N+](=O)[O-])c1ccc(Cl)cc1Cl (stereo not drawn)	0.316 µM [rising, partial curve, poor fit]	0.708 µM [rising, partial curve]
Cc1cc(C)c[n+](CC(=O)c2ccc(-c3ccccc3)cc2)c1	8.91 µM [rising, partial curve, poor fit]	8.91 µM [rising, partial curve, poor fit]
Cc1nc(NC(=O)CC(C)C)sc1-c1csc(Nc2ccc(Cl)cc2Cl)n1	10 µM [rising, single point]	–
COc1ccc(/C=C2\N=C(C)N(c3ccc4ccccc4c3)C2=O)cc1OC	0.708 µM [rising, full curve, poor fit]	0.794 µM [rising, full curve, poor fit]

Reformatted in markdown: entries from further up

| SMILES | AC50 [1] | AC50 [2] |
| --- | --- | --- |
| CC(C)CCNC(=O)c1cc(-c2cccnc2)nc2ccc(S(=O)(=O)N3CCC(C)CC3)cc12 | – | 0.0398 µM [rising, full curve, poor fit] |
| CCC(Sc1nc2ccsc2c(=O)n1-c1ccc(Cl)c(C)c1)C(=O)NCc1ccco1 (stereo not drawn) | 35.5 µM [rising, single point] | 35.5 µM [rising, single point] |
| O=C(CC1(O)C(=O)Nc2ccccc21)c1ccccc1O (stereo not drawn) | 6.31 µM [falling, partial curve] | – |
| O=C1[C@@H]2Cc3c([nH]c4ccccc34)[C@@H](c3ccccc3)N2C(=O)[C@@H]2Cc3c([nH]c4ccccc34)[C@@H](c3ccccc3)N12 | 0.501 µM [rising, full curve] | 1.41 µM [rising, partial curve] |
| CCOc1ccc(-c2cc(C(=O)NCCc3ccc(C)cc3)c3ccccc3n2)cc1 | 10 µM [falling, partial curve, poor fit] | 7.08 µM [falling, partial curve, poor fit] |
| COc1ccc(-c2coc3cc(O)cc(O)c3c2=O)cc1 | 28.2 µM [rising, single point] | – |
| COc1ccccc1OCCOCCOc1c(C)cc(C)cc1Br | 35.5 µM [rising, single point] | – |
| CC(=O)OCCN(C)c1cc(SC(C)C)c2nonc2c1[N+](=O)[O-] | 0.0355 µM [rising, full curve, poor fit] | – |
| Cn1cc(-c2nc3cnc(OCc4ccccc4)nc3n(CCC#N)c2=O)c2ccccc21 | – | 12.6 µM [falling, partial curve] |
| O=c1c2c(nc3n1CCCCC3)-c1ccccc1CC21CCCC1 | 17.8 µM [rising, single point] | – |
| CCN(CC)C(=O)c1ccc2c3c(cccc13)C(=O)N(CCc1ccc(OC)c(OC)c1)C2=O | 20 µM [rising, partial curve, poor fit] | – |
| COC(=O)c1ccccc1NC(=O)Cn1cnc2cc(C)c(C)cc21 | 22.4 µM [rising, partial curve] | – |
| O=C(NC1CCCCC1)c1ccc(CSc2nc3cccnc3n2Cc2ccccc2)cc1 | – | 0.794 µM [falling, full curve, poor fit] |
